{"source": "patent US20100249231A1", "about": "“HSP90 Inhibitors of Protein-Protein Interaction HSP90 Chaperone Complexes and Therapeutic Uses Thereof” (THE OHIO STATE UNIVERSITY RESEARCH FOUNDATION, priority 2007, published 2010)", "key": {"IκB-α": {"tested_on": "IκB-α", "test": "Western blot of proteasome target protein IκB-α in Panc-1 cells", "type": "cell-based, human"}, "Hsp90-Hop complex": {"tested_on": "Hsp90-Hop complex", "test": "Immunoprecipitation of Hsp90 and Western blot for Hop", "type": "cell-based, human", "details": "Panc-1 cells, 10 μM"}}, "note": "For at least one compound, name, drawing or mass did not settle the structure.", "data": [{"smiles": "COC1=C2C[C@@H](C)C[C@H](OC)[C@H](O)[C@@H](C)/C=C(\\C)[C@H](OC(N)=O)[C@@H](OC)/C=C\\C=C(/C)C(=O)NC(=CC1=O)C2=O", "note": "[geldanamycin, reference compound]", "values": [{"measurement": "protein level of IκB-α", "setting": "IκB-α", "value": "showed similar effect as celastrol"}, {"measurement": "amount of Hop in the immunoprecipitated Hsp90 complex", "setting": "Hsp90-Hop complex", "value": "did not change the level of Hop and Cdc37"}]}]}
